Measurements taken from US20230322953A1.
These are yes or no findings as the source states them, for the method shown. Some binding calls cover weakened binding; strength is not graded here.

Target: cynomolgus monkey BCMA on cells (HEK293T/cyno BCMA) (cynomolgus monkey)
Assay: FACS, HEK293T/cyno BCMA cells

Row | binding | Binder
1 | binds | PR001046 (anti-BCMA HCAb, clone 1005P63B7) (antibody, human IgG1, V domains shown) VH: EVQLVETGGGLIQPGGSLRLSCAASGFTVSDNYMTWVRQAPGKGLEWVSVIFSGGNTYYADSVKGRFTISRDNAKNTLYLQMNSLRAEDTALYYCARRNYDDTRGTDVFDIWGQGTMVTVSS
2 | binds | PR000943 (anti-BCMA HCAb, clone 1005P16A10) (antibody, human IgG1, V domains shown) VH: EVQLVETGGGLIQPGGSLRLSCAASGFPVSSNYMSWVRQAPGKGLEWVSVIFSGGRTYYADSVKGRFTISRDNSKNTLYLQMNSLRAEDTAVYYCARRNWIDGRDAFDIWGQGTMVTVSS
3 | binds | PR001035 (anti-BCMA HCAb, clone 1005P36F3) (antibody, human IgG1, V domains shown) VH: EVQLVETGGGLIQPGGSLRLSCAASGFTVSSNYMTWVRQAPGKGLEWVSVIFSGGSTYYADSVKGRFTISRDNSKNTLYLQMNSLRAEDTAVYYCARRIAVAGHDVFDIWGQGTMVTVSS
